{"source": "patent US7531505B2", "about": "(Affinergy, Inc., priority 2006, dated 2009)", "assay": "Fmoc solid-phase peptide synthesis; HBTU/HOBt/NMM", "conditions": "whole synthesis, analytical HPLC (C-18)", "data": [{"substance": "SSFYGEVGYVGASLYAGGASSRG-PEG-SSHRTNHKKNNPKKKNKTRG (SSHRTNHKKNNPKKKNKTRGSSFYGEVGYVGASLYAGGASSRG; PEG10 linker joining SEQ 3 and SEQ 19)", "values": [{"measurement": "final purity (method not given)", "value": ">95", "unit": "% purity"}]}]}
